Assay results as given in the supplement of paper PMC10849652.
This is one part of the list.

Sequences of proteins named here, by UniProt entry; tags and fusion partners are left off. A change or cut given only in a name is not applied to a line headed by its entry.
UniProt P0C7P3: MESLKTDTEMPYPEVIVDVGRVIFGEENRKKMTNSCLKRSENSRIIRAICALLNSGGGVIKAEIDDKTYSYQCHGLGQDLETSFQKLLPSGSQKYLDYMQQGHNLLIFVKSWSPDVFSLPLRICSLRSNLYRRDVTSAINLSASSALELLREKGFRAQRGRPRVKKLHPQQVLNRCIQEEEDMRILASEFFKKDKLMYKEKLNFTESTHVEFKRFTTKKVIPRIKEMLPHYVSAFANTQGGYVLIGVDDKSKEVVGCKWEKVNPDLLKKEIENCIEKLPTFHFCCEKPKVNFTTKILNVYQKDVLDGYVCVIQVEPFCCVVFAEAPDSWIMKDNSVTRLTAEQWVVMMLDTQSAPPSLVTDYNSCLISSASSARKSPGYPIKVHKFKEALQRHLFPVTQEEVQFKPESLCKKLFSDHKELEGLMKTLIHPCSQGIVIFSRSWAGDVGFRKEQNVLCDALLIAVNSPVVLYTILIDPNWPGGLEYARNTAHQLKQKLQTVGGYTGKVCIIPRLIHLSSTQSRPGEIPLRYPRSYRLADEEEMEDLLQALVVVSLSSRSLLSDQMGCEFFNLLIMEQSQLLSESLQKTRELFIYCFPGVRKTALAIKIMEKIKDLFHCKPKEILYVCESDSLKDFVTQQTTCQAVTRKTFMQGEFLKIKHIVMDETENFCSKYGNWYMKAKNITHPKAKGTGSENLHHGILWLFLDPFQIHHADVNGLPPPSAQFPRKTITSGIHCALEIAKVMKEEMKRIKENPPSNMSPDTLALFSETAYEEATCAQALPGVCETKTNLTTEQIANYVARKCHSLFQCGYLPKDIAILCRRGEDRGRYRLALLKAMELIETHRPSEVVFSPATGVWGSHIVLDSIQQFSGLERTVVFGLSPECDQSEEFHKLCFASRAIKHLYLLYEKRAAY
UniProt Q9H4L7: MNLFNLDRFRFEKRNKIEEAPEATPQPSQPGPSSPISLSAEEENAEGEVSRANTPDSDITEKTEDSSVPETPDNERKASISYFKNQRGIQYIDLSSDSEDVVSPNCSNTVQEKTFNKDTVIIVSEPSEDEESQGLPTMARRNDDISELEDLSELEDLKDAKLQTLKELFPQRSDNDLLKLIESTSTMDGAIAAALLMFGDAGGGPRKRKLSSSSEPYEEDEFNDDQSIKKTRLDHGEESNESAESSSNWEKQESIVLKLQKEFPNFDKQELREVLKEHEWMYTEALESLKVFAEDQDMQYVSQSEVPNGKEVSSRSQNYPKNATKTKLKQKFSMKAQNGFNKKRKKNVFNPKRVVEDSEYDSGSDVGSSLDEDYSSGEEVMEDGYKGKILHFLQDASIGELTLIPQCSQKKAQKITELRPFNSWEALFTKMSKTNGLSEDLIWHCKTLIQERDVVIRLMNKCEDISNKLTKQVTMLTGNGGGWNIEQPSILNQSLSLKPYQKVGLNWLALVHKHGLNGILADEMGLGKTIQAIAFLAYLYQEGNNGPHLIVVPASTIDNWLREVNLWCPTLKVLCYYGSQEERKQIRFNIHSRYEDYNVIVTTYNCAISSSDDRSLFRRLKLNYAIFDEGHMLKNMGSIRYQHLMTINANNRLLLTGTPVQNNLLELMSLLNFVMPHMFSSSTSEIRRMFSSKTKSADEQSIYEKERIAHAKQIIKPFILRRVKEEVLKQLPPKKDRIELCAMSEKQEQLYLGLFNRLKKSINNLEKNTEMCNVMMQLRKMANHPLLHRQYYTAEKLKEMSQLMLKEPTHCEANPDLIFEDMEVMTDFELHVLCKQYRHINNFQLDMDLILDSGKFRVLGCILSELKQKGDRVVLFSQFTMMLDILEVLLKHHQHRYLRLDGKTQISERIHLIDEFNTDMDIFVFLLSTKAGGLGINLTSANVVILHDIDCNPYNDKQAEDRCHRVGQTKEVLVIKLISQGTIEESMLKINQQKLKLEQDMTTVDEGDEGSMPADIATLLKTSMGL
UniProt Q96KF7: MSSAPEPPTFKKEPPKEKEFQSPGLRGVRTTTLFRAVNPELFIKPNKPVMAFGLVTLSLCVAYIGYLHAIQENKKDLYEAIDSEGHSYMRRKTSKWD
UniProt Q9UMY4: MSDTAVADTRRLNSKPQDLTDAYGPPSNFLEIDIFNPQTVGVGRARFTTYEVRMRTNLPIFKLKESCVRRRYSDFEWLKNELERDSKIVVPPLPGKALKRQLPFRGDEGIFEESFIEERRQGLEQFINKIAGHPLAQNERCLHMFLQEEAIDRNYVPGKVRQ

Experiments:
Assay in all cases: log2 fold change, soluble protein after heating vs DMSO (PISA); higher = thermal stabilisation; K562 cells, 10 uM, 30 min; active = over 0.2 and 3.5 SD of the protein, either way, in both replicates (recomputed)
[1] = compound: C1=CC=C(C=C1)[C@H](COC2=CC3=C(C=C2)NC(=O)N3)NC(=O)C4=CC=CN(C4=O)CC5=CC(=C(C=C5)F)F
Outline: (§1)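 K562 cells at 2×10^6 cells/mL were exposed to 10 μM compound for 30 min, then aliquots were heated for 3 min across 48°C-58°C, pooled, and extracted in PBS containing 0.5% NP-40 at 4°C. The supernatant after 21,000xg for 90 min was taken as soluble protein and measured by TMTpro 16plex LC-MS/MS with channel sums equalised. Thermal stability is reported relative to control samples, with values from duplicates. Fold changes are given on a log2 scale.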

[2] = compound: CC1=C(SC2=C1C(=N[C@H](C3=NN=C(N32)C)CC(=O)N)C4=CC=C(C=C4)Cl)C
Outline: as §1

[3] = compound: CC1=C2C(=CC=C1)N=C(N(C2=O)C3=CC=CC=C3C)CN4C=NC5=C(N=CN=C54)N
Outline: as §1

[4] = compound: Cc1sc2c(c1C)C(c1ccc(Cl)cc1)=N[C@@H](CC(=O)OC(C)(C)C)c1nnc(C)n1-2
Outline: as §1

[5] = compound: c1ccc([C@@H]2C[C@H]2NC2CCNCC2)cc1
Outline: as §1

Measured: log2 fold change

SLFN14 (UniProt P0C7P3)
inactive: [1] -0.189 | [2] 0.043 | [3] -0.869 | [4] 0.39 | [5] 0.007

SMARCAD1 isoform 2 (UniProt Q9H4L7)
inactive: [1] -0.029 | [2] 0.071 | [3] 0.214 | [4] -0.129 | [5] 0.004

SMIM8 (UniProt Q96KF7)
inactive: [1] 0.085 | [2] 0.096 | [3] 0.132 | [4] -0.015 | [5] 0.011

SNX12 isoform 1 (UniProt Q9UMY4)
inactive: [1] 0.016 | [2] -0.009 | [3] 0.095 | [4] 0.026 | [5] 0.02
